PubChem BioAssay AID504804, Drosophila RNAi Screening Center – 2011
The deposit covers about 19,000 reagents; this is an unselected part of those that have a named target and a result. Over the whole deposit, 47 (0.25%) were called active. 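Signals are raw, not normalised; exact z-scores behind calls not deposited; actives needed confirmation, so some wells reaching 2 SD are inactive.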

- Purpose: 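Fly genes whose loss lessens doxorubicin-driven cell death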 (primary screen)
- System: Drosophila Kc cells
- Reagents: long dsRNA against Drosophila genes, 0.5 µg dsRNA per well
- Timing: 96 h (48 h knock-down, then 48 h drug)
- Challenge: doxorubicin 5 µg/ml for 48 h, added 48 h after dsRNA
- Measured: 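Luminescent ATP counts per replicate, not normalised, reflecting viable cells after 48 h dsRNA knock-down followed by 48 h of 5 µg/ml doxorubicin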
- Direction: raw ATP luminescence: higher = more viable cells, protection from doxorubicin
- Active means: 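z-score of 2 or more over plate mean in both duplicates, retained only when retests and separate dsRNAs confirm the protection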

predicted target,dsRNA,"raw ATP luminescence, replicate 1","raw ATP luminescence, replicate 2",Outcome
Bet1,DRSC10088,68293,68053,inactive
CR11700 (retired record),DRSC17794,10260,10240,inactive
Usp7,DRSC18909,3.00e5,2.95e5,inactive
Usp7,DRSC19604,3.58e5,2.97e5,inactive
CG31998,DRSC17138,51200,52990,inactive
Vps13B,DRSC15060,66170,64330,inactive
ODA-Dnal1,DRSC07270,65197,86297,inactive
Evi5,DRSC19421,3.04e5,2.95e5,inactive
jagn,DRSC12152,66710,31133,inactive
CR33317,DRSC02653,49817,44713,inactive
Acbp3,DRSC11022,65190,78223,inactive
CG16863,DRSC01892,77110,69840,inactive
CG7289,DRSC00697,1.11e5,88170,inactive
CG12115,DRSC17811,3.68e5,3.67e5,inactive
LpR2,DRSC13726,2.43e5,1.93e5,inactive
LpR2,DRSC13728,2.16e5,1.86e5,inactive
LpR2,DRSC15658,40440,46710,inactive
Ets98B,DRSC16666,36790,47090,inactive
Pos,DRSC15415,42490,51890,inactive
Sec61alpha,DRSC03256,1.18e5,77857,inactive
CSN5,DRSC16592,39453,36713,inactive

Limited to “raw ATP luminescence, replicate 1” (3 entries from above):
Usp7 [DRSC19604]	3.58e5
CG31998 [DRSC17138]	51200
Vps13B [DRSC15060]	66170

Next entries follow:
predicted target,dsRNA,"raw ATP luminescence, replicate 1","raw ATP luminescence, replicate 2",Outcome
pds5,DRSC06670,65710,51630,inactive
Rpn3,DRSC03318,56030,50857,inactive
CG31223,DRSC15115,38370,39317,inactive
CG8042,DRSC09676,39313,33140,inactive
CG42241 (retired record),DRSC04007,1.01e5,1.00e5,inactive
CG6310,DRSC10619,72733,71470,inactive
CG8100,DRSC10961,49950,32263,inactive
Phax,DRSC07066,73290,92937,inactive
BicD,DRSC02006,85897,71000,inactive
Ccp84Ae,DRSC12590,63990,56643,inactive
CG31913,DRSC00892,2.70e5,2.70e5,inactive
Sumo,DRSC03611,56757,50753,inactive
Rdh1,DRSC06812,55283,52127,inactive
bib,DRSC03496,97467,80290,inactive
mr,DRSC04332,84247,60293,inactive
CG7137,DRSC07017,71423,66747,inactive
CG33223,DRSC17572,1.92e5,2.01e5,inactive
CG31221,DRSC14335,52550,47290,inactive
CG31221,DRSC16217,73410,93630,inactive
Pp2A-29B,DRSC03400,37390,73950,inactive
CAP,DRSC05215,72207,94940,inactive
CAP,DRSC06743,78813,48847,inactive
CAP,DRSC06744,32670,64893,inactive
CAP,DRSC06745,40963,58593,inactive
CAP,DRSC06846,48603,79060,inactive
cpb,DRSC00809,87893,65447,inactive
whe,DRSC20537,2.13e5,2.45e5,inactive
CG15117,DRSC06539,52957,64563,inactive
CG12496,DRSC18602,36760,44210,inactive
CG14780,DRSC18566,42030,52010,inactive
PIP5K59B,DRSC04290,69747,61140,inactive
PIP5K59B,DRSC04403,44577,41257,inactive
CG16758,DRSC07984,1.52e5,1.10e5,inactive
CG16758,DRSC08492,72413,62843,inactive
ergic53,DRSC11389,88590,84297,inactive
CG2865,DRSC18528,54080,83950,inactive
